PubChem BioAssay AID1053208, Peter MacCallum Cancer Centre – 2014
Purpose: 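Genes whose silencing cuts survival of bone tumour cells only with doxorubicin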 (primary screen). Cells: mouse osteosarcoma cells, early-passage culture from an engineered mouse model of fibroblastic bone tumour. Knock-down reagent: siRNA pool against mouse genes, 40 nM. Timing: about 120 h (48 h before drug, then 72 h with drug). Treatment: doxorubicin 100 nM for 72 h, roughly 30-40% inhibitory dose. Read-out: 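Viability read as ATP luminescence after 72 h of 100 nM doxorubicin or none, duplicate wells averaged, scaled to non-targeting siRNA, then expressed as robust z-scores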. Scale: viability z-score with doxorubicin: higher = more viable cells under doxorubicin; viability z-score without drug: higher = more viable cells with knock-down alone. Call rule: 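a pool counts as active when its viability z-score with doxorubicin is -2 or below and its z-score without drug lies between -2 and 2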.
The whole screen tested about 17,000 reagents; this is a random part of them. Of all reagents, 788 (4.7%) are marked active. 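Calls rest on z-score classes alone; an extra cut-off of viability at most 70% of control was not applied to them.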 A number with no mark means an inactive call. Not all columns of the deposit are shown. No sequences are given here.

Against 5430414B19Rik (RIKEN cDNA 5430414B19 gene) the deposit lists combined z-score class no change with or without drug; viability z-score with doxorubicin -1.57; viability z-score without drug 0. Depletion of Rgl2 (ral guanine nucleotide dissociation stimulator-like 2) gave: combined z-score class no change with or without drug; viability z-score with doxorubicin -0.11; viability z-score without drug -0.67. Phf6 (PHD finger protein 6) scored combined z-score class no change with or without drug; viability z-score with doxorubicin 0.9; viability z-score without drug 1.18. After knock-down of Tacr2 (tachykinin receptor 2), the screen gave combined z-score class no change with or without drug; viability z-score with doxorubicin 0.11; viability z-score without drug 0.67. With knock-down of Higd2a (HIG1 domain family, member 2A) the results were combined z-score class no change with or without drug; viability z-score with doxorubicin -0.9; viability z-score without drug 0.17. Silencing of Rbm11 (RNA binding motif protein 11) came out at: combined z-score class no change with or without drug; viability z-score with doxorubicin 0.56; viability z-score without drug 0.17.

Against Asb9 (ankyrin repeat and SOCS box-containing 9), the entry reads combined z-score class no change with or without drug; viability z-score with doxorubicin 0.34; viability z-score without drug -0.84. Against Isg15 (ISG15 ubiquitin-like modifier), the entry reads combined z-score class no change with or without drug; viability z-score with doxorubicin 1.12; viability z-score without drug 0.51. For Thrsp (thyroid hormone responsive), the values are combined z-score class no change with or without drug; viability z-score with doxorubicin -1.35; viability z-score without drug 0. For Dpep2 (dipeptidase 2) the deposit lists combined z-score class no change with or without drug; viability z-score with doxorubicin 0.67; viability z-score without drug -0.34. Mmp16 (matrix metallopeptidase 16) scored combined z-score class no change with or without drug; viability z-score with doxorubicin 0; viability z-score without drug -0.17. Silencing of Ccnt2 (cyclin T2) came out at: combined z-score class no change with or without drug; viability z-score with doxorubicin 0.22; viability z-score without drug 1.18.

Silencing of Hoxa1 (homeobox A1) resulted in: combined z-score class no change with or without drug; viability z-score with doxorubicin 0; viability z-score without drug -0.17. With knock-down of Pramel6 (PRAME like 6), the screen gave combined z-score class no change with or without drug; viability z-score with doxorubicin 0.67; viability z-score without drug 0.51. For Msl3 (MSL complex subunit 3), the values are combined z-score class no change with or without drug; viability z-score with doxorubicin -0.22; viability z-score without drug -0.51. After knock-down of Utf1 (undifferentiated embryonic cell transcription factor 1) the results were combined z-score class no change with or without drug; viability z-score with doxorubicin -1.35; viability z-score without drug -0.34. Depletion of Cyp17a1 (cytochrome P450, family 17, subfamily a, polypeptide 1) gave: combined z-score class no change with or without drug; viability z-score with doxorubicin 0.45; viability z-score without drug -0.67. With knock-down of Rbm18 (RNA binding motif protein 18) the results were combined z-score class no change with or without drug; viability z-score with doxorubicin 1.57; viability z-score without drug -0.51.

Knock-down of Bex2 (brain expressed X-linked 2) came out at: combined z-score class no change with or without drug; viability z-score with doxorubicin 0; viability z-score without drug -1.52. After knock-down of Rnf11 (ring finger protein 11) the results were combined z-score class no change with or without drug; viability z-score with doxorubicin -0.22; viability z-score without drug 0.17. After knock-down of Kng1 (kininogen 1) the results were combined z-score class no change with or without drug; viability z-score with doxorubicin -0.67; viability z-score without drug -1.18. Depletion of Cebpd (CCAAT/enhancer binding protein delta) resulted in: combined z-score class low cell count with doxorubicin only (active); viability z-score with doxorubicin -3.37; viability z-score without drug -1.35. Or6c33 (olfactory receptor family 6 subfamily C member 33) gave combined z-score class no change with or without drug; viability z-score with doxorubicin 1.12; viability z-score without drug -0.34. Tmub1 (transmembrane and ubiquitin-like domain containing 1) gave combined z-score class no change with or without drug; viability z-score with doxorubicin -0.67; viability z-score without drug -0.51.

With knock-down of Coprs (coordinator of PRMT5, differentiation stimulator), the screen gave combined z-score class no change with or without drug; viability z-score with doxorubicin 0; viability z-score without drug 0.84. Silencing of Ifi44 (interferon-induced protein 44) gave: combined z-score class no change with or without drug; viability z-score with doxorubicin -0.9; viability z-score without drug -1.52. Depletion of Hnrnpr (heterogeneous nuclear ribonucleoprotein R) gave: combined z-score class no change with or without drug; viability z-score with doxorubicin 0.45; viability z-score without drug 0.51. After knock-down of Ccr7 (C-C motif chemokine receptor 7) the results were combined z-score class no change with or without drug; viability z-score with doxorubicin -0.45; viability z-score without drug 0.51.

As entered above.
Higd2a (HIG1 domain family, member 2A), viability z-score without drug: 0.17
Ifi44 (interferon-induced protein 44), viability z-score without drug = -1.52
Rbm11 (RNA binding motif protein 11), combined z-score class → no change with or without drug
For “combined z-score class”, Rgl2 (ral guanine nucleotide dissociation stimulator-like 2) reads no change with or without drug
